Reference: patent publication US20160319330
Results from cells or extracts need not show a direct contact.

Chains of the proteins cited; added tags and fusions are not shown. Residues count along the entry.
UniProt Q16552, 24-155: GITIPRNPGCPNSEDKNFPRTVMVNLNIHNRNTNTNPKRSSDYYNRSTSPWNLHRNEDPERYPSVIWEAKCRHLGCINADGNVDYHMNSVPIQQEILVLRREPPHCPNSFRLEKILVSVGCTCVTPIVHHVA

Legend:
IL17RA = IL17RA (UniProt Q96F46); test: binding assay; conditions: aptamer from Chen et al. 2011; aptamer-avidin-oligonucleotide bound to tissue proteins on nitrocellulose in SELEX buffer 30 min, detected by PCR and array; protein in an extract; single-stranded DNA
IL17 = IL17 (UniProt Q16552); test: binding assay; conditions: aptamer from Korean Patent 10-1276519; aptamer-avidin-oligonucleotide bound to tissue proteins on nitrocellulose in SELEX buffer 30 min, detected by PCR and array; protein in an extract

Sequence | binding result (IL17RA) | binding result (IL17)
ACGCGCTAGGATCAAAGCTGCACTGAAGTG [IL17RA aptamer] | binds | –
GGUCUAGCCGGAGGAGUCAGUAAUCGGUAGACC [IL17 aptamer] | – | binds
